Laboratory results as given in PubChem BioAssay AID540276 (National Center for Advancing Translational Sciences (NCATS), 2011).
About 5,400 (1.8%) of roughly 300,000 compounds were called active. This list was built around the results that the source calls inconclusive (neither active nor inactive); the mix of calls is not that of the screen. The call rests on the fitted dose curve; tested in HEK293 cells. Potencies beside an inconclusive call are fits to weak or partial responses and may not hold up.
On the % scale 0 is the no-effect control and ±100 the full control effect; potency means the concentration at half of the fitted maximal effect.

Experiment: qHTS for inhibitors of binding or entry into cells for Marburg Virus
Settings: Marburg virus pseudotyped entry inhibition, cell reporter; activity change, negative = inhibition: at 37.8 µM (top of the series) unless noted
With `Cc1ccc(S(=O)(=O)Oc2cc(N)c3c(n2)CCC3)cc1` the Potency was inconclusive: 11.2 µM [activator, partial curve, poor fit].
In the case of `CCn1c2ccccc2c2nc3ccccc3nc21`, the “activity change, negative = inhibition” value is reported as inactive: 24.5%.
In the case of `O=C(Cc1ccc(Cl)cc1)NCC(=O)N1CCN(Cc2ccccc2)CC1`, the Potency is reported as inconclusive: 20 µM [inhibitor, single point].
In the case of `COC(=O)c1cc(COc2ccc3oc(C)c(C(=O)OC(C)C)c3c2)c(C)o1`, the Potency is reported as inconclusive: 25.1 µM [inhibitor, single point].
For `O=C(CCc1ccc(S(=O)(=O)NCCc2ccccc2)cc1)Nc1ccc2c(c1)OCCO2`, the Potency was inconclusive: 35.5 µM [inhibitor, partial curve, poor fit].
In the case of `O=C(N1CCCC1)N1CCN(S(=O)(=O)c2ccccc2)CC1`, the “activity change, negative = inhibition” value is reported as inactive: 3.05% [at 46.1 µM].
For `CCN(C(=O)c1ccnn1C)c1ccccc1`, the Potency was inconclusive: 29.1 µM [activator, single point].
For `Cc1ccc(Cn2c(CCNC(=O)C(C)C)nc3ccccc32)cc1`, the “activity change, negative = inhibition” value was inactive: 15.3% [at 46.1 µM].
With `CCNc1nc(N)nc(-c2cc(Cl)ccc2O)n1` the Potency was inconclusive: 16.4 µM [inhibitor, single point].
In the case of `CC(C)(C)c1nc(CN2CCCCC2)cc(CN2CCCCC2)c1O`, the Potency is reported as inconclusive: 8.91 µM [inhibitor, partial curve, poor fit].
With `CCCc1[nH]nc2c1C(c1ccc(Br)s1)C(C#N)=C(N)O2` (stereo not drawn) the Potency was inconclusive: 35.5 µM [inhibitor, single point].
With `CN(C)c1oc(-c2ccccc2Cl)nc1P(=O)(c1ccccc1)c1ccccc1` the Potency was inconclusive: 29.1 µM [inhibitor, single point].
For `COC(=O)c1c(-c2cccs2)csc1NC(=O)c1ccc(C(C)C)cc1`, the “activity change, negative = inhibition” value was inactive: 9.13% [at 46.1 µM].
For `CC(C)(C)C1CCc2c(sc(NC(=O)CSc3nnc(-c4ccccc4)o3)c2C#N)C1` (stereo not drawn), the “activity change, negative = inhibition” value was inactive: -0.774%.
In the case of `COc1cc(/C=N/NC(=O)CCc2ccccc2)ccc1O`, the Potency is reported as inconclusive: 17.8 µM [activator, single point].
In the case of `O=C(CSc1nnc(-c2ccncc2)o1)NCc1ccc(Cl)cc1`, the Potency is reported as inconclusive: 7.31 µM [inhibitor, partial curve, poor fit].
For `Cc1cc(C)c(C)c(S(=O)(=O)NCc2ccc(C(=O)N3CCOCC3)cc2)c1C`, the “activity change, negative = inhibition” value was inactive: -15.9%.
For `COC(=O)c1ccccc1NC(=O)CCS(=O)(=O)c1nc(-c2ccc3c(c2)OCO3)cc(C(F)(F)F)n1`, the “activity change, negative = inhibition” value was inactive: 15.9% [at 46.1 µM].
In the case of `O=c1c(Cl)c(N/N=C/c2ccc(Br)cc2)cnn1-c1ccccc1`, the Potency is reported as inconclusive: 11.2 µM [inhibitor, single point].
For `COCCn1c(SCC(=O)NC(=O)NC(C)(C)C)nc2ccccc21`, the Potency was inconclusive: 0.92 µM [activator, partial curve].
For `Cc1cc(C)n2nc(C(=O)N/N=C/c3c4ccccc4cc4ccccc34)nc2n1`, the Potency was inconclusive: 0.126 µM [inhibitor, full curve, poor fit].
With `C=CCNc1nc2ccccc2c(=O)[nH]1` the “activity change, negative = inhibition” value was inactive: -0.762% [at 46.1 µM].
In the case of `O=C(Nc1ccccc1F)NC1CCN(Cc2nnnn2Cc2ccc(F)cc2)CC1`, the Potency is reported as inconclusive: 20.6 µM [activator, single point].
With `CCc1nc(N2CCCC(C)C2)c2oc3ccccc3c2n1` (stereo not drawn) the Potency was inconclusive: 29.1 µM [inhibitor, single point].
With `Cc1ccc(S(=O)(=O)CCc2nnc(NC(=O)CCl)s2)cc1C` the Potency was inconclusive: 8.91 µM [inhibitor, partial curve, poor fit].
For `CC1(C)CC=CC(COC(=O)c2ccccc2C(=O)O)C1` (stereo not drawn), the “activity change, negative = inhibition” value was inactive: 18.5%.
In the case of `Cc1cccc(C)c1NC(=O)CCCSc1nnc(-c2ccco2)o1`, the “activity change, negative = inhibition” value is reported as inactive: -12.8%.
In the case of `CCOC(=O)N1CCN(C(=O)c2ccc3c(c2)N(Cc2ccc(C)cc2)CCS3)CC1`, the Potency is reported as inconclusive: 23.1 µM [inhibitor, single point].
With `COc1ccc(CNC(=O)c2cnc3ccc(C)cn3c2=O)cc1` the “activity change, negative = inhibition” value was inactive: 2.66% [at 46.1 µM].
For `CCc1nn(CC(=O)NC(C)CC)c(=O)c2cc3occc3n12` (stereo not drawn), the “activity change, negative = inhibition” value was inactive: -0.102% [at 46.1 µM].
In the case of `CCCCNc1nnc(CCn2nc(C)c(Br)c2C)s1`, the Potency is reported as inconclusive: 2.24 µM [activator, partial curve].
In the case of `CC1=CC(c2ccccc2)=Nc2ccc(C)cc2N1`, the Potency is reported as inconclusive: 13 µM [inhibitor, single point].
For `COc1ccc(C2CC(c3ccccc3)=NN2c2ccc(C(N)=O)cc2)cc1` (stereo not drawn), the Potency was inconclusive: 0.178 µM [inhibitor, full curve, poor fit].
For `Clc1ccc(/C=N/NC2=Nc3cccc4cccc2c34)cc1`, the Potency was inconclusive: 2.82 µM [inhibitor, partial curve, poor fit].
With `COCc1cc(N2CCOCC2)nc(-c2ccccc2)n1` the Potency was active: 10 µM.
In the case of `O=C(NNC(=S)NC1CCCCC1)c1ccc(Cl)s1`, the “activity change, negative = inhibition” value is reported as inactive: -2.41% [at 46.1 µM].
For `Cc1ccc(-c2nnc(-c3ccccc3Br)o2)cc1`, the Potency was inconclusive: 10 µM [inhibitor, partial curve, poor fit].
In the case of `Cc1ccc(-c2nnc3sc(C4COc5ccccc5O4)nn23)cc1` (stereo not drawn), the “activity change, negative = inhibition” value is reported as inactive: 9.22%.
For `O=C(N/C(=C/c1cn(-c2ccccc2)nc1-c1ccccc1)C(=O)N1CCOCC1)c1ccc(Cl)cc1Cl`, the “activity change, negative = inhibition” value was inactive: -0.848%.
For `O=C(Nc1ccc(C(F)(F)F)cc1)c1csc(-c2ccncc2)n1`, the Potency was inconclusive: 25.1 µM [inhibitor, single point].
For `O=S(=O)(NCC(O)c1ccccc1)c1ccc(-c2ccccn2)s1` (stereo not drawn), the “activity change, negative = inhibition” value was inactive: -1.06% [at 46.1 µM].
In the case of `O=C(/C=C/c1ccc(Cl)cc1)Nc1ccc(N2CCCCC2)cc1`, the Potency is reported as inconclusive: 1.16 µM [inhibitor, partial curve, poor fit].
For `CCOC(=O)c1sc2cccc(F)c2c1N`, the “activity change, negative = inhibition” value was inactive: 15.8%.
With `C=C1CCc2c([nH]c3ccc(OCC(C)C)cc23)C1=O` the Potency was inconclusive: 15.8 µM [inhibitor, single point].
With `CCN(CC)CCN1C(=O)c2oc3ccccc3c(=O)c2C1c1cccc(Br)c1` (stereo not drawn) the “activity change, negative = inhibition” value was inactive: -16.5%.
With `Cn1c(SCc2c(F)cccc2Cl)nnc1-c1cccs1` the Potency was inconclusive: 5.8 µM [activator, single point].
For `COCCNC(=O)c1[nH]c2cc(C)ccc2c1Sc1ccc(Cl)cc1`, the “activity change, negative = inhibition” value was inactive: 7.62% [at 46.1 µM].
In the case of `Cc1sc2ncnc(Oc3ccc(-n4ccnc4)cc3)c2c1C`, the Potency is reported as inconclusive: 11.2 µM [inhibitor, partial curve, poor fit].
